This note sets out measurements from patent publication US11628198B2, “Methods for prevention and treatment of acute renal injury” (Cornell University, priority 2008, dated 2023).

The data set relates to contrast induced nephropathy in diabetic animal model. As to the kind of experiment: CIN in diabetic (HFD/STZ) rats with iohexol, Experiment 2. The format is in vivo, rat. As for the experimental part: In this experiment, 30 SD rats were fed with high fat diet for 6 weeks, followed by the injection with low dose streptozotocin (30 mg/kg). After 9 more weeks, the rats were used in the contrast induced nephropathy study. The animals were divided into 2 groups with the doses, dosing schedules and study protocol as follows. On day 0, the weight of the animals was determined and glucose and serum samples were collected. On day 1, Scr was assayed and spot urine collection performed. On days 2 and 3, 3 mg/kg SS-31 (Group 1) or a vehicle (Group 2) was administered s.c. 30 min prior to the dye injection (6 mL/kg i.v. tail vein). SS-31 (Group 1) or PBS (Group 2) administration was repeated at 2 h, 1 day, 2, days, 3 days, 4 days, and 5 day post-dye administration. On day 8, serum and urine samples were collected and the rats were euthaniszed to harvest kidneys and vital organs.
Renal function: Renal function was assessed by determining serum and urinary creatinine using Jiancheng Cr kit (Nanjing, P.R.C) at baseline, 24 h, 3 day and 6 days following contrast dye (Iohexol) administration. The creatinine clearance was calculated based on the Scr, Ucr and Urinary volume. Samples were analyzed by students t-test and differences were considered significant at p<0.05.

Consider D-Arg-2′6′Dmt-Lys-Phe-NH2 [SS-31], for which the Body weight is reported as 566.5 ± 20.3 g (T1 (24 h post dye)), 565.6 ± 21 g (T2 (3 day post dye)) and 558.3 ± 20.1 g (T3 (6 days post dye)).
